In all, about 53,000 sequences went through this assay and about 3,700 (7%) were called active.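 How the source made its calls: active means gene knockdowns whose robust z-score for IL-1 alpha signal is at least 2 or at most -2, so actives lie on both sides; inactive means the rest.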 This is one part of the list.
experiment: Components of the Cytosolic LPS Sensing Pathway: Gene Identification via Genome-wide siRNA Screen; settings: RAW264.7 macrophages, IL-1a HTRF, actives lie on both sides, screened at 100 nM (by protocol), cells primed 5 h with Pam3CSK4 first;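 further: robust z of the log signal after scaling to non-targeting control siRNA wells of the plate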
Method in brief: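 Three distinct siRNAs per gene were tested singly at 100 nM in RAW264.7 macrophages. Following Pam3CSK4 priming and 24 hour LipidA transfection, IL-1a secretion was read by HTRF.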

| Sequence | z-score |
| --- | --- |
| GGAUUCAAGCAUCGGAUUGTT against Adamts6 | inactive: 1.11 |
| GCCUCUUCAGAUGGACCUATT against Tspan32 | inactive: -1.86 |
| GGGUCUGAUUGUCAAGGGATT against Me3 | inactive: -0.128 |
| GGCUUACCUUGGAUUUUAUTT against Rab36 | inactive: -1.31 |
| GGGUGAAUUUCAAAAGCUATT against Fbxo41 | inactive: 0.0699 |
| CCCUGAGUGCCGUAUGAUUTT against Ddb1 | inactive: -1.33 |
| GGUGAUGGAUGUGGACACATT against Dcbld2 | inactive: 0.554 |
| GGUGCUGGAGAACAUUAAATT against Panx1 | inactive: 0.451 |
| GCAUGCUAGGGAACCUGCUTT against Olfr1318 | inactive: -1.75 |
| GGACAGGUACUUUUCCCUGTT against Gnpda2 | inactive: -1.19 |
| GGAAGUGGAUGAGGAUUGATT against Purb | inactive: -1.85 |
| GGUGCUCACAGUGAAGAAGTT against Ppm1h | inactive: -1.33 |
| GCCUAUCAAUGUGUAUCUUTT against Tcf21 | inactive: -0.497 |
| GCUGUACAAUUUUAGGAGGTT against Slc17a2 | inactive: 0.485 |
| GGAUGAAAAGUUAAAGCAUTT against Ppp1r7 | inactive: -1.4 |
| GGGCCUGCCAGUGUGAUAUTT against Gpha2 | inactive: 0.53 |
| GGCUAAGCUGAAGAAGCACTT against Fam219b | inactive: -0.326 |
| GCCAAACGUGGGUUUGAUATT against Ccna1 | active: 4.74 |
| CCUGGUGACAUCACUAAAATT against P4ha1 | inactive: -0.752 |
| GGAGAUUGUGGAAAUGCUUTT against Skiv2l | inactive: 0.459 |
| CGGAGCCAGUUGGUAAAGATT against Vps39 | inactive: -0.128 |
| GGUGUAUAGUUUUACACUCTT against Psen2 | inactive: -0.289 |

Copied from the results shown (21 entries):

| Sequence | z-score |
| --- | --- |
| GCCUCUUCAGAUGGACCUATT against Tspan32 | inactive: -1.86 |
| GGGUCUGAUUGUCAAGGGATT against Me3 | inactive: -0.128 |
| GGCUUACCUUGGAUUUUAUTT against Rab36 | inactive: -1.31 |
| GGGUGAAUUUCAAAAGCUATT against Fbxo41 | inactive: 0.0699 |
| CCCUGAGUGCCGUAUGAUUTT against Ddb1 | inactive: -1.33 |
| GGUGAUGGAUGUGGACACATT against Dcbld2 | inactive: 0.554 |
| GGUGCUGGAGAACAUUAAATT against Panx1 | inactive: 0.451 |
| GCAUGCUAGGGAACCUGCUTT against Olfr1318 | inactive: -1.75 |
| GGACAGGUACUUUUCCCUGTT against Gnpda2 | inactive: -1.19 |
| GGAAGUGGAUGAGGAUUGATT against Purb | inactive: -1.85 |
| GGUGCUCACAGUGAAGAAGTT against Ppm1h | inactive: -1.33 |
| GCCUAUCAAUGUGUAUCUUTT against Tcf21 | inactive: -0.497 |
| GCUGUACAAUUUUAGGAGGTT against Slc17a2 | inactive: 0.485 |
| GGAUGAAAAGUUAAAGCAUTT against Ppp1r7 | inactive: -1.4 |
| GGGCCUGCCAGUGUGAUAUTT against Gpha2 | inactive: 0.53 |
| GGCUAAGCUGAAGAAGCACTT against Fam219b | inactive: -0.326 |
| GCCAAACGUGGGUUUGAUATT against Ccna1 | active: 4.74 |
| CCUGGUGACAUCACUAAAATT against P4ha1 | inactive: -0.752 |
| GGAGAUUGUGGAAAUGCUUTT against Skiv2l | inactive: 0.459 |
| CGGAGCCAGUUGGUAAAGATT against Vps39 | inactive: -0.128 |
| GGUGUAUAGUUUUACACUCTT against Psen2 | inactive: -0.289 |

Carrying on:

| Sequence | z-score |
| --- | --- |
| GGCAAAGAGUUUUGAUCAGTT against Calu | inactive: -0.434 |
| GCUGUGUGUUGUUCAAUUGTT against Pdcd6ip | inactive: 0.0624 |
| CCCUGAGAAGGAUGCGAAATT against Mgat4b | inactive: 0.44 |
| GGGCAUGCUGCUUAUUGUGTT against Slc5a4b | inactive: -0.8 |
| CGACAUGGAAUGUUCACACTT against Metap2 | inactive: 1.03 |
| GGAGAAGCUAAGAAACGAGTT against Acyp2 | inactive: -0.696 |
| GGCAUAGCACUUUUGUACCTT against Lancl2 | inactive: 0.327 |
| GGGAAACUCCAGUUCAAAGTT against Zbtb18 | inactive: -0.365 |
| GGUGUCUUUGCUCAGCUCATT against Lrfn4 | active: -2.93 |
| GCACAACAUCACGGUGAACTT against Adcy5 | inactive: -0.672 |
| GGUGCAACAACACCACAUCTT against Mmp1a | inactive: -0.382 |
| GUUUUUCUGGGCAAUUUUATT against Olfr739 | active: 2.11 |
| GAGACAUCCUCUUCACCAUTT against Olfr495 | inactive: -1.25 |
| GGAUCUUUCAAAGAGAGUUTT against Egfl8 | inactive: 1.51 |
| GGAUCACUGGGAAAACGGUTT against Nfatc2 | inactive: 1.66 |
| CGGAAAGCACAAAAACACUTT against Clec2g | inactive: 1.59 |
| GGGUACUGUUUUGUUAACUTT against Rbm18 | inactive: 0.547 |
| GGCCAGAGUAUCGAUGUUCTT against Slc25a14 | inactive: -0.566 |
| GCAGCAUCUAAGAGUGGCGTT against Smtnl1 | inactive: 0.298 |
| GGACAGUUCCAUGAAUACCTT against Rab5b | inactive: -0.655 |
| GGUGAAACGGGAUGUUAACTT against Ppargc1b | inactive: -0.102 |
| CGACCAAGAUGUAAUACAUTT against Nudt8 | inactive: 0.474 |

| Sequence | z-score |
| --- | --- |
| GGAUGUUAAAGCAAGUGUATT against Olfr1153 | inactive: 0.169 |
| GGAGACCUUGAAGAAGAUUTT against Vav2 | inactive: 0.183 |
| GGUGAAAACGUGGUUCCAGTT against Bsx | inactive: -0.0072 |
| GGCCUUGAAAUACUAUAAGTT against Ttc24 | inactive: -0.478 |
| GCCGUACCGGAUUUUUUUCTT against Smyd3 | active: 4 |
| GGUUCAGAAGUUUGGGAGATT against Mrpl48 | inactive: 0.615 |
| GGAUUUGAUGGAAAUGUCATT against Dcaf10 | inactive: 0.636 |
| GGAAGAUGGGCGACUCUAUTT against Pkmyt1 | inactive: 0.176 |
| GGACAUCAUGUGCAUGGAATT against Fbxo38 | inactive: 1.29 |
| GGUAUACCAGAGGAAGAAGTT against Slc39a11 | inactive: 0.9 |
| GGAUCAAAAACACAUACUUTT against Adgre4 | active: 2.37 |
| GGUUGAAGUUGAAGUUUAATT against Top3a | inactive: -0.451 |
| GCUCAGUACUCAGAAGUGCTT against Olfr578 | inactive: 0.328 |
| GCUAGUUGAGGACUGAUAUTT against Chrna4 | inactive: 1.34 |
| GGCUUUCGCUAGAAAACUCTT against Sftpc | inactive: 0.531 |
| GGUAGGACCCAAACAUGUATT against Klhl31 | inactive: -0.0474 |
| GCUGCCUAUGGCUUCUUCCTT against Tmem160 | inactive: -1.37 |
| GGGCACUCAAGUGUAUGUCTT against Hpx | inactive: 0.224 |
| CCUCAAGGAUAAUUAUUACTT against Mgat4d | inactive: -1.56 |
| GCUGGGACUGCUUGAGAUATT against AF067063 | inactive: -0.338 |
| CCAAUUAUGUGAGAAGUGATT against Snx24 | inactive: 0.463 |
| GGCUGUGGUCUUCAUUGAATT against Tpcn2 | inactive: -0.467 |

| Sequence | z-score |
| --- | --- |
| GUGCUUGAUCUCUUCGAUGTT against Ppt2 | inactive: 0.207 |
| GGAGGAGAGGAGAAUAGCATT against Atp5k | inactive: -0.586 |
| CCUACCGAGGUCAAGAAUUTT against Asf1a | inactive: -1.27 |
| GGACUCAUCUUUAUUAUUCTT against Olfr393 | inactive: -0.324 |
| GGAUCAGAUUCUCUUCUUCTT against Gypa | inactive: 0.531 |
| GGGCUAAGUACCAAACUCATT against Ly6e | inactive: -1.71 |
| GGAGAAGUGACUUUUUCGUTT against Herc4 | inactive: 0.564 |
| CCUUAUAGCUAUGACUUUCTT against Tas2r136 | inactive: 0.172 |
| GGUAAACCGAGUGAUGACCTT against Ift43 | inactive: 1.38 |
| GGAAAGGAAAAAAAAGGAATT against Dync1i2 | inactive: 0.282 |
| GGAGCGAGAGUAUCUAUUGTT against Trp53i13 | inactive: -0.355 |
| GCGCACAACAGACUUCUAUTT against Epm2a | inactive: 0.0628 |
| GGAUGGAAAUAAAUUCACATT against Fabp2 | inactive: -1.81 |
| GCAACUAGCGUGUGUUCCUTT against Arpc1a | active: 2.4 |
| GGAAGGAUUGCCUUUAGGATT against Rbm12b2 | inactive: 0.29 |
| GGAGAUGGAAAAGAACAGATT against Dtnb | inactive: 1.55 |
| GGUUCUGCUGUACUCCUUGTT against Wrap73 | inactive: 1.36 |
| GGUCUAUGGCUUAAACUUUTT against Evl | inactive: 0.68 |
| CCCGGAACUUAACUCUGUATT against Gm5148 | inactive: -1.51 |
| GGAGACAAUAAUUGAAGAUTT against Gabpb2 | inactive: -1.4 |
| CCUGGACACGAUUUCAGAGTT against Rbm6 | inactive: 1.18 |
| GGAGAGCGAAGAAAAAAUGTT against Birc2 | inactive: -0.852 |

| Sequence | z-score |
| --- | --- |
| GGUCCAUAAAGAAACCAUATT against Zfp207 | inactive: 0.436 |
| AGAACAGAGGGCUACCUUGTT against Ly6g6e | inactive: 1.37 |
| GGAGCUGCGCUUGACAUUGTT against Neil1 | inactive: -1.6 |
| GGCUCUUAUUUUUGUAAAGTT against Rgl1 | inactive: -1.61 |
| GGAAAUCCCGGGAUGUCAGTT against Pnliprp2 | inactive: -1.45 |
| GGAUACUUUUCUUCUAAGATT against Krtap15 | inactive: -1.44 |
| CCUUUCCCUCCAUUUAGGGTT against Sit1 | inactive: -1.46 |
| CUUUGUACUAUGGUUCAAUTT against Olfr1010 | inactive: -1.49 |
| GGAGUCCACAUGGAAAUCATT against Mei4 | inactive: 0.383 |
| GGCUAUGUUCACCUGUGGATT against Kbtbd12 | active: -2.66 |
| CCUGAUAAGCAAAUACGGCTT against Rep15 | inactive: -0.893 |
| GGAGCUAGGAAGGUGGUAGTT against Mutyh | inactive: -1.77 |
| CCAGGACAAUAACUCUGAGTT against Aatk | inactive: -1.28 |
| GCUCCUGUUUAAGCAUAUGTT against Nalcn | inactive: 0.98 |
| GGUAACUGUCCAGAAUCAGTT against Psapl1 | inactive: 0.0896 |
| CGGCUUACCGUAUUCAUCGTT against Dhx32 | inactive: 0.69 |
| GGAAAAUAGUGGAAGCCUGTT against Atg3 | inactive: -0.371 |
| GACAAGAACCCGGAUAAUATT against Dnajb2 | inactive: -0.229 |
| AGGUCAAAAGAAGCCGGAATT against Bud31 | inactive: 0.559 |

Source: PubChem BioAssay AID1508600 (Functional Genomics Laboratory (NCATS/FGL), 2020)
